Tests used:
Set-up in all cases: species or system human
[1] = tested on: B-ALL cells; assay: MiHA detection by LC-MS/MS after peptide isolation by mild acid elution (MAE); settings: second symbol of the cell
[2] = tested on: B-LCL cells; assay: as above; settings: second symbol of IP/MAE
[3] = tested on: B-LCL cells; assay: MiHA detection by LC-MS/MS after peptide isolation by immunoprecipitation (IP, W6/32); settings: first symbol of IP/MAE

| Substance | IP/MAE: detected with MAE isolation [1] | MAE (identified by mild acid elution) [2] | IP (identified by immunoprecipitation) [3] |
| --- | --- | --- | --- |
| REEPEKI/MIL [MiHA No. 131] | ✓/✓ |  |  |
| VI/TDSAELQAY (119) |  | ✓/✓ | ✓/✓ |
| EI/LDPSNTKALY (86) |  | ✓/✓ | ✓/✓ |
| APRES/NAQAI (112) |  | ✓/✓ | ✓/✓ |
| QE/DLIGKKEY [MiHA No. 138] | ✓/✓ |  |  |
| LC/SEKPTVTTVY (90) |  | ✓/✓ | ✓/✓ |
| ASELHTSLH/Y (83) |  | ✓/✓ | ✓/✓ |
| SAFADRPS/AF (96) |  | ✓/✓ | ✓/✓ |
| LPRGMQ/KPTEFFQSL (110) |  | ✓/✓ | ✓/✓ |
| SPRV/APVSPLKF (99) |  | ✓/✓ | ✓/✓ |
| RP/L/RAGPALLL (128) |  | ✓/✓ | ✓/✓ |
| IPF/LSNPRVL (116) |  | ✓/✓ | ✓/✓ |
| SPRA/VPVSPLKF (101) |  | ✓/✓ | ✓/✓ |
| SL/PRPQGLSNPSTL (100) |  | ✓/✓ | ✓/✓ |
| V/APEEARPAL (97) |  | ✓/✓ | ✓/✓ |
| HPR/PQEQIAL (103) |  | ✓/✓ | ✓/✓ |
| R/CPTRKPLSL (124) |  | ✓/✓ | ✓/✓ |
| LPRGMQ/KPTEF (120) |  | ✓/✓ | ✓/✓ |
| VPNV/EKSGAL (87) |  | ✓/✓ | ✓/✓ |
| EEINLQR/INI [MiHA No. 137] | ✓/✓ |  |  |
| TTDKR/WTSFY (122) |  | ✓/✓ | ✓/✓ |

From patent US20200055918A1, “NOVEL MINOR HISTOCOMPATIBILITY ANTIGENS AND USES THEREOF” (UNIVERSITÉ DE MONTRÉAL, priority 2017, published 2020)
